From article doi:10.64898/2025.12.07.692853
These are yes or no findings as the source states them, for the method shown. Binding seen in cells or lysates may run through a third protein. Some entries that bind do so weakly or less than the wild type.

By UniProt entry, the sequences of proteins in these tests, tags left out. Where a name states a change or a piece, a line headed by the entry shows the natural chain unless it says otherwise. Residues count along the entry.
UniProt P08670: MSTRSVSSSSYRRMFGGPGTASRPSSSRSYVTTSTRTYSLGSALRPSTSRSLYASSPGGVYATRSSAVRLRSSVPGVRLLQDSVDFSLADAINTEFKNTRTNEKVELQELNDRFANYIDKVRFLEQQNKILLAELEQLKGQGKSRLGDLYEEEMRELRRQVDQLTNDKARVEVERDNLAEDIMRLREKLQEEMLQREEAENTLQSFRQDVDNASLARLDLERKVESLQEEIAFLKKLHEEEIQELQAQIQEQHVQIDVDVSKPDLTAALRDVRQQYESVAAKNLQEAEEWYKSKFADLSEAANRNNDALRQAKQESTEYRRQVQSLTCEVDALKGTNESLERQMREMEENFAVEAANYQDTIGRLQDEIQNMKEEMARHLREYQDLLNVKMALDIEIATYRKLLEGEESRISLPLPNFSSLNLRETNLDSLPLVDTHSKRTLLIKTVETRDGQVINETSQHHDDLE
UniProt P11021, residues 19-654: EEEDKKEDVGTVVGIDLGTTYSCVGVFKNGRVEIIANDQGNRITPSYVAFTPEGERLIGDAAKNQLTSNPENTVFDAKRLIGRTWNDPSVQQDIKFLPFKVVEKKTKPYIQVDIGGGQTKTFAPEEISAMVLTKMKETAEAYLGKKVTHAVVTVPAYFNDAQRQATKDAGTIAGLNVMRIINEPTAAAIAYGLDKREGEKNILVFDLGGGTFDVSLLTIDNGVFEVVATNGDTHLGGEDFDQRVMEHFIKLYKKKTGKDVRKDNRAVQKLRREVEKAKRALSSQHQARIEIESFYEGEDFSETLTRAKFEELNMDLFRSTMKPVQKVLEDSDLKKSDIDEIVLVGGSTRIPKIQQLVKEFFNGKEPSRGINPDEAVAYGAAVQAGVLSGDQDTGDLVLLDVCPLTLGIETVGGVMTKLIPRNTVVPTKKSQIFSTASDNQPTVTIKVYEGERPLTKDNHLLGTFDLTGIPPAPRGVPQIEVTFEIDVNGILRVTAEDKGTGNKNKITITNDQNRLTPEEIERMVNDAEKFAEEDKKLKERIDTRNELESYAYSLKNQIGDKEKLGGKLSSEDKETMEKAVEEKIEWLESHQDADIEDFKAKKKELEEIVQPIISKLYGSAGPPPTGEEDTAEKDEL
UniProt P14625, residues 22-803: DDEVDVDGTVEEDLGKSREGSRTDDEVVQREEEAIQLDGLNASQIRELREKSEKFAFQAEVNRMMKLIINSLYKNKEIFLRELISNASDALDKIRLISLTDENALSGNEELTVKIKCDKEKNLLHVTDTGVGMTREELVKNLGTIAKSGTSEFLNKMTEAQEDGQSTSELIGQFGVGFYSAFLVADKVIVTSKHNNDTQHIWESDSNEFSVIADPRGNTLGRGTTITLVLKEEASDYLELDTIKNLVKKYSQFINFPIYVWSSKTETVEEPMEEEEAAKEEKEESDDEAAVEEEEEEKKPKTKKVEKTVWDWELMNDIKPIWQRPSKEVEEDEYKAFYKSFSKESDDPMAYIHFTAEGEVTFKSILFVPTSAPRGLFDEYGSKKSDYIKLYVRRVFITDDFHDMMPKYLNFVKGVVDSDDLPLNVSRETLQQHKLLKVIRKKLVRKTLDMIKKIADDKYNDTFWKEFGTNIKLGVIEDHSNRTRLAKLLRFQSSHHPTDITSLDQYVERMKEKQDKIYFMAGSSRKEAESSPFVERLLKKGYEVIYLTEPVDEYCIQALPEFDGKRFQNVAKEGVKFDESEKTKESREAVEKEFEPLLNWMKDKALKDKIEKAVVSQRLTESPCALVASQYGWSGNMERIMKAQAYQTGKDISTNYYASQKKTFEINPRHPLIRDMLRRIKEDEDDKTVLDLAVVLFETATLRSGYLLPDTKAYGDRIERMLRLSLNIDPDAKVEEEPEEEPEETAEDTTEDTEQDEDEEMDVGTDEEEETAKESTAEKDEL

Tests used:
[1] = biological target: vimentin L387P (human) (human) (UniProt P08670); assay: co-IP
[2] = biological target: vimentin wild-type (human) (human) (UniProt P08670); assay: co-IP

GRP78 (from UniProt P11021 19-654)
binding [1]: binds | binding [2]: binds

GRP94 (from UniProt P14625 22-803)
binding [1]: binds | binding [2]: binds
